In the supplement of paper PMC12823440, “Inhibitors supercharge kinase turnover through native proteolytic circuits” (Nature, 2025):
The list shows a part of the results. Hit calls seldom repeat between salt and free forms of one compound.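 Kinases, fused to nanoluciferase, were expressed in K562 cells; luminescence was measured every 4 h from 2 to 18 h as percent of control (DMSO = 100%, positive control = 0%). A time point is decreased if signal falls significantly (2 sigma). Hits were called by the authors by a rule that is not shown; the count of time points alone does not decide it.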

Sequences of proteins named here, by UniProt entry; tags and fusion partners are left off. A change or cut given only in a name is not applied to a line headed by its entry.
UniProt Q16288, whole entry, looked up: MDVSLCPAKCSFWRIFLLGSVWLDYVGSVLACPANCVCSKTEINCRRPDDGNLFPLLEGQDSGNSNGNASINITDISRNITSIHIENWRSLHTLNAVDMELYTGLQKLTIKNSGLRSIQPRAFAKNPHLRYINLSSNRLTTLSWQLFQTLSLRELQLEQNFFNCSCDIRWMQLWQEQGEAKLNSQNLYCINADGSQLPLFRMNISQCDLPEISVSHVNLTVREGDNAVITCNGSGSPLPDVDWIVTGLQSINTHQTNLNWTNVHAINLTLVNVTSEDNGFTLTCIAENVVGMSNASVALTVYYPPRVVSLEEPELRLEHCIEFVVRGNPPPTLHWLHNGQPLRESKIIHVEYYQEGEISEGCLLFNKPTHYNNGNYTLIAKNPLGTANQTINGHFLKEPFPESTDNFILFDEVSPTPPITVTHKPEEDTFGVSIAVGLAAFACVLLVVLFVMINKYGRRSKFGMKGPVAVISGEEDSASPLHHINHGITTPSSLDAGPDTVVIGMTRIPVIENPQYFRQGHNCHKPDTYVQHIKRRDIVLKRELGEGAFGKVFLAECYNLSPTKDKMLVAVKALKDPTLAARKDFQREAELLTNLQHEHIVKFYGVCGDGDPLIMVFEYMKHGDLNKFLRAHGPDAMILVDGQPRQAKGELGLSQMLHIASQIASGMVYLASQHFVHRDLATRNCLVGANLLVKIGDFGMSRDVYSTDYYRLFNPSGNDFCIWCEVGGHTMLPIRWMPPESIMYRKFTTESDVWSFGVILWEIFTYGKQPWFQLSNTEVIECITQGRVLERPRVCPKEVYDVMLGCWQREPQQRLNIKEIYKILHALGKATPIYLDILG
UniProt O75460: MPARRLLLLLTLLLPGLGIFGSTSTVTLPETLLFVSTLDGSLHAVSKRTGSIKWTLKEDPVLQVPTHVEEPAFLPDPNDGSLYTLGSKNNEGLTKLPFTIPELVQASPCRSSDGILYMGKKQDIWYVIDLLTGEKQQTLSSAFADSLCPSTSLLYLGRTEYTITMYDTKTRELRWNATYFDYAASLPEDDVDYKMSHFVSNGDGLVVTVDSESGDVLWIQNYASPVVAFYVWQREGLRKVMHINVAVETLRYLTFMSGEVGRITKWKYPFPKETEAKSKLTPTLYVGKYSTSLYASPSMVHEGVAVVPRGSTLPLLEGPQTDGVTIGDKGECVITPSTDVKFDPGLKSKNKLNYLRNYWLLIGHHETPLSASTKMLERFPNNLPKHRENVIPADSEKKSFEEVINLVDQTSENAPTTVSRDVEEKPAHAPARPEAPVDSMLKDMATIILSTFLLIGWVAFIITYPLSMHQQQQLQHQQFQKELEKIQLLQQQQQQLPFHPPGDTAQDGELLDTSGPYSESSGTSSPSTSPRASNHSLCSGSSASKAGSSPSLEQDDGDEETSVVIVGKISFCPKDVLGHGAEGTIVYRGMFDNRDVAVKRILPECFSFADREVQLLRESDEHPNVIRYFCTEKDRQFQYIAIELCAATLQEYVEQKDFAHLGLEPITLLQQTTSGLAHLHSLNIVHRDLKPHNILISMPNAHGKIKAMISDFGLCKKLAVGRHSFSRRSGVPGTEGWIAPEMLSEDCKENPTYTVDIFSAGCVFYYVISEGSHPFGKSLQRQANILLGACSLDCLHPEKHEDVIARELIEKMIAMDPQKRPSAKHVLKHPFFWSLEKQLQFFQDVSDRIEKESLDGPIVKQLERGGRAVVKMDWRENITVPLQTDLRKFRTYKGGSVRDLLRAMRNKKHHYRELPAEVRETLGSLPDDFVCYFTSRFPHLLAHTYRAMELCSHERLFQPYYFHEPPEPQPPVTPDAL
UniProt Q9Y463, whole entry, looked up: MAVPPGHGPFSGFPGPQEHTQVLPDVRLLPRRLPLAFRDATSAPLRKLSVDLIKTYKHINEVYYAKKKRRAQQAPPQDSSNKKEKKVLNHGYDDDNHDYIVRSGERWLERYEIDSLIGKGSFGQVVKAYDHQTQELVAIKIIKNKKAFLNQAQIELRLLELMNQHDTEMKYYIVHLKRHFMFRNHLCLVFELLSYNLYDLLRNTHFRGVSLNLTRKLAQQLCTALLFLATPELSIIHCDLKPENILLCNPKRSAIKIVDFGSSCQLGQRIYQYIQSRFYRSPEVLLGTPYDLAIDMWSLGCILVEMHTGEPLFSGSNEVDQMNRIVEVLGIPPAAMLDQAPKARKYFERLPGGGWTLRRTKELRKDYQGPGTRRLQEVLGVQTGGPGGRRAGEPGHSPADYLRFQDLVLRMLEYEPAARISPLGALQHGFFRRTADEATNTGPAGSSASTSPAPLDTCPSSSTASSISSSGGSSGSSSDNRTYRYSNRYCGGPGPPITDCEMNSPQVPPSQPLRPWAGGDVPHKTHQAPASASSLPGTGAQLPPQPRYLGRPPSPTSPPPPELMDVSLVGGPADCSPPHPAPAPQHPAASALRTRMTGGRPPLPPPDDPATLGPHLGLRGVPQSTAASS
UniProt P06239: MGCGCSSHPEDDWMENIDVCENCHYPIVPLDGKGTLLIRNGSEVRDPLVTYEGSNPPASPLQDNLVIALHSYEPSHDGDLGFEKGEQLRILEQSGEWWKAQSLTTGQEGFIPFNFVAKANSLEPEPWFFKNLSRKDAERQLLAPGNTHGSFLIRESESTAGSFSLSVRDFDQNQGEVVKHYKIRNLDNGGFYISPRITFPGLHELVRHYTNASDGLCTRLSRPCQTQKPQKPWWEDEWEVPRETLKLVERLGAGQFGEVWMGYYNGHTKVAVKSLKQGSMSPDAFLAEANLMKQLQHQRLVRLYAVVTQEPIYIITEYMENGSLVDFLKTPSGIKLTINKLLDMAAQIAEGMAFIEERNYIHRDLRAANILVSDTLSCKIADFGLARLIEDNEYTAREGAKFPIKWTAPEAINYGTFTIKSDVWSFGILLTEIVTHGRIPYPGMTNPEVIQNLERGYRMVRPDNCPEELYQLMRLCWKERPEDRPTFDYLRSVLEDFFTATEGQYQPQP
UniProt Q96KB5: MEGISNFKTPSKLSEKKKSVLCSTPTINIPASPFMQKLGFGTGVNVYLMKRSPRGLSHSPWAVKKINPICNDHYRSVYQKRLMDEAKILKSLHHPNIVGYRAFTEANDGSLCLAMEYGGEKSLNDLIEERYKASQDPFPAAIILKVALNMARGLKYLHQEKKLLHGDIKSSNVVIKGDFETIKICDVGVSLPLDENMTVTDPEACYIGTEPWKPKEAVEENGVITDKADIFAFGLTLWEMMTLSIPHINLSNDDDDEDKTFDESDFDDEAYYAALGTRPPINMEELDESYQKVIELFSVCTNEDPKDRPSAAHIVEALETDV
UniProt Q08345: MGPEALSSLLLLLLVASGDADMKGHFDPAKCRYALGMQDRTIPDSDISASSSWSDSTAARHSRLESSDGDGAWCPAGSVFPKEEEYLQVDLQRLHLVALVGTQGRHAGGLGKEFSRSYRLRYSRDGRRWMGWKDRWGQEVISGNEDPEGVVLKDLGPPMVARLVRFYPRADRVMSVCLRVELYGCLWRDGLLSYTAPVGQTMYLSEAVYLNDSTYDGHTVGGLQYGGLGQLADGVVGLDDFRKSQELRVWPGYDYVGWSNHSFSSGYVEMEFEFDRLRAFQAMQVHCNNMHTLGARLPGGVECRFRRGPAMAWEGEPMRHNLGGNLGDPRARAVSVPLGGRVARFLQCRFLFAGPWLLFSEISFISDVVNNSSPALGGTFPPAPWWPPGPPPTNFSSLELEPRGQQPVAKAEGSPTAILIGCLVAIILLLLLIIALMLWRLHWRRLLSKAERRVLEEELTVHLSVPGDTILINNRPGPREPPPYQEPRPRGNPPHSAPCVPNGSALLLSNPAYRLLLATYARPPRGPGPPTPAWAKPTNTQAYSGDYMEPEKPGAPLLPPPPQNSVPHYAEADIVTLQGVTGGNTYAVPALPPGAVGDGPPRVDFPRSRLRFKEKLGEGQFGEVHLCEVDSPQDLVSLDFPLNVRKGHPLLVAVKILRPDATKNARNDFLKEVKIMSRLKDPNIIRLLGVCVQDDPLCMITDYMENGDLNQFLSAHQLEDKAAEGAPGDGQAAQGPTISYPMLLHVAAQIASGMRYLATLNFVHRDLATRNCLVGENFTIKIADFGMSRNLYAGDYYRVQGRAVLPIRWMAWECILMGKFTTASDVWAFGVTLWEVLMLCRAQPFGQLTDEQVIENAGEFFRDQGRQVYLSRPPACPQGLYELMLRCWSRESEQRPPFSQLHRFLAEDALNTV
UniProt Q15131: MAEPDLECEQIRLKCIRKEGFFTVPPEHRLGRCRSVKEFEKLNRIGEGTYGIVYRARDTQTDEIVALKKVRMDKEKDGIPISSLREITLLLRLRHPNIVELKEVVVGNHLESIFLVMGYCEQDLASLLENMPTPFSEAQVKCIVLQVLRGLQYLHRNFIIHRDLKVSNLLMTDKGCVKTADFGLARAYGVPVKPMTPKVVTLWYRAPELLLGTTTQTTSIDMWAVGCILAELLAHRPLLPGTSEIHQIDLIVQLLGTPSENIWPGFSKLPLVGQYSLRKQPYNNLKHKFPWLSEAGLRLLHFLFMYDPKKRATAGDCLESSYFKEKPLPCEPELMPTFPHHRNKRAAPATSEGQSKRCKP
UniProt P43403: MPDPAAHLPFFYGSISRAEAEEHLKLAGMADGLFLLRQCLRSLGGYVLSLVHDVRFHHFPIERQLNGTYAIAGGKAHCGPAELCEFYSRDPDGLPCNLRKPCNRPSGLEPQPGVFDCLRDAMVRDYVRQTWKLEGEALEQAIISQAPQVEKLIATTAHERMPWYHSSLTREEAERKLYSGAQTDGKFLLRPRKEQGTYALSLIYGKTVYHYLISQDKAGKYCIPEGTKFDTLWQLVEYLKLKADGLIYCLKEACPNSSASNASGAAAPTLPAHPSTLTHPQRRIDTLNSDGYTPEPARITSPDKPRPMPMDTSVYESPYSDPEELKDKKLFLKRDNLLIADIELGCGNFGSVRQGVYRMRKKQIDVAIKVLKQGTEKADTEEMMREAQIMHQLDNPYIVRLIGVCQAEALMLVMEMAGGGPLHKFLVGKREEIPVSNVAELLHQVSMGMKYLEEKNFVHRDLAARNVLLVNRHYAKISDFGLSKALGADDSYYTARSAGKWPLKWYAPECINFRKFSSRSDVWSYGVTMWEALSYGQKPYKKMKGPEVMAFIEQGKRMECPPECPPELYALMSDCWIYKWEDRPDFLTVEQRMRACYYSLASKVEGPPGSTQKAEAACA
UniProt Q16620, whole entry, looked up: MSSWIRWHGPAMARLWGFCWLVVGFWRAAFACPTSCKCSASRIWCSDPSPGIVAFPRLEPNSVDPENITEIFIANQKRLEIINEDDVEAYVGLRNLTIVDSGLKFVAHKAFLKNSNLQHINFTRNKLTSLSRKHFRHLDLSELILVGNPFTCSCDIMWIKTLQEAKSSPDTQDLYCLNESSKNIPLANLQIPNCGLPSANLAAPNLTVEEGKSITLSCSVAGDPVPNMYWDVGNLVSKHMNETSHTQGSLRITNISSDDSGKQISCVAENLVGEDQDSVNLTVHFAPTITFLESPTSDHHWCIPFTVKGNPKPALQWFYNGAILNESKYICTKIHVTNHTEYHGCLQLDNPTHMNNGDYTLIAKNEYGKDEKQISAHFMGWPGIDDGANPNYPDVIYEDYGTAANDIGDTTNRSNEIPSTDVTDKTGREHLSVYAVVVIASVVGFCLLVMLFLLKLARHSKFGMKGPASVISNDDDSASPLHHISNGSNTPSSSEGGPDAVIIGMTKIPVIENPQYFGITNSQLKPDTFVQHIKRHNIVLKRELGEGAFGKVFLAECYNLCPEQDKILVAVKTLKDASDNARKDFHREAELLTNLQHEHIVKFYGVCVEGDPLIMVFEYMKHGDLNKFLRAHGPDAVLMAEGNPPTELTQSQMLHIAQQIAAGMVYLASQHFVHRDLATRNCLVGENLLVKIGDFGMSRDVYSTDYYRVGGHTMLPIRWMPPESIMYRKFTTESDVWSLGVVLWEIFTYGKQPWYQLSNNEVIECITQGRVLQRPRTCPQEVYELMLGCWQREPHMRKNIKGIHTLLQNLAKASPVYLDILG
UniProt Q9Y616: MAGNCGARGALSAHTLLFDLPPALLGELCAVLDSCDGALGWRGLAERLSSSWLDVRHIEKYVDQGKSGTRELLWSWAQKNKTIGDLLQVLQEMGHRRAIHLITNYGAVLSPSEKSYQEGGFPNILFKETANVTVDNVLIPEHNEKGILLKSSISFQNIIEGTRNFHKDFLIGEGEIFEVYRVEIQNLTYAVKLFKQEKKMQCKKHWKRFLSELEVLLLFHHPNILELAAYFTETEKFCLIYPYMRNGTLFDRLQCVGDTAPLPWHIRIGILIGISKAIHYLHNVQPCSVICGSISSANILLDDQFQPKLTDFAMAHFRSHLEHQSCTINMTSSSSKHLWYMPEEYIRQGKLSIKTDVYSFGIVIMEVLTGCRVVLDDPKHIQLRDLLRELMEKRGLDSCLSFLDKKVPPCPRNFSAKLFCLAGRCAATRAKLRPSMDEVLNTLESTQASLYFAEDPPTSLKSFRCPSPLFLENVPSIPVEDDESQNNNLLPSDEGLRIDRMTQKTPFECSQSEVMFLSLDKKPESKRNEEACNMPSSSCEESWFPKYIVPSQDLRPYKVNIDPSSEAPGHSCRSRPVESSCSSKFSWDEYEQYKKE

Assays:
Test in all cases: number of time points (of 5) at which kinase-Nluc abundance scored as decreased, DMSO-normalised (count); higher = more persistent destabilization
[1] = compound: OCCn1cc(-c2cnc3nnn(Cc4ccc5ncccc5c4)c3n2)cn1; conditions: 10 µM; K562; 2-18 h
[2] = compound: Oc1cccc(-c2nc(N3CCOCC3)c3oc4ncccc4c3n2)c1 [PI-103 (Hydrochloride)]; conditions: 2.5 µM; K562; 2-18 h
[3] = compound: Oc1cccc(-c2nc(N3CCOCC3)c3oc4ncccc4c3n2)c1; conditions: 10 µM; K562; 2-18 h
[4] = compound: c1cc(-c2cnn3cc(-c4ccc(OCCN5CCCCC5)cc4)cnc23)ccn1 [Dorsomorphin (dihydrochloride)]; conditions: 2.5 µM; K562; 2-18 h
[5] = compound: c1cc(-c2cnn3cc(-c4ccc(OCCN5CCCCC5)cc4)cnc23)ccn1 [Dorsomorphin]; conditions: 2.5 µM; K562; 2-18 h

Target | number of time points [1] | number of time points [2] | number of time points [3] | number of time points [4] | number of time points [5]
NTRK3 (UniProt Q16288) | 0 | 0 | 0 | 3 | 0
ERN1 (UniProt O75460) | 0 | 0 | 0 | 0 | 0
DYRK1B (UniProt Q9Y463) | 0 | 0 | 0 | 0 | 0
RIOK1 (UniProt Q9BRS2) | 0 | 0 | 0 | 2 | 0
GSK3A (UniProt P49840) | 0 | 0 | 0 | 0 | 0
RAF1 (UniProt P04049) | 0 | 0 | 0 | 2 | 0
LCK (UniProt P06239) | 0 | 0 | 0 | 0 | 0
PIK4CA (UniProt P42356) | 0 | 0 | 0 | 0 | 0
EGFR_L718V (UniProt P00533) | 0 | 0 | 0 | 1 | 0
AURKB (UniProt Q96GD4) | 0 | 0 | 0 | 0 | 0
FGR (UniProt P09769) | 0 | 0 | 0 | 0 | 0
LYN (UniProt P07948) | 0 | 0 | 0 | 0 | 0
PIK4CB (UniProt Q9UBF8) | 0 | 0 | 0 | 0 | 0
CSNK1D (UniProt P48730) | 0 | 0 | 1 | 0 | 0
FGFR3 (UniProt P22607) | 0 | 0 | 0 | 0 | 0
PBK (UniProt Q96KB5) | 0 | 0 | 0 | 0 | 0
JAK1 (UniProt P23458) | 0 | 0 | 0 | 3 | 0
STK24 (UniProt Q9Y6E0) | 0 | 0 | 0 | 0 | 0
MAPK4 (UniProt P31152) | 0 | 0 | 0 | 0 | 0
TYK2 (UniProt P29597) | 0 | 0 | 0 | 3 | 0
RAF1_S257L (clone: RAF1_mut) (UniProt P04049) | 0 | 0 | 0 | 4 | 0
EGFR_G719S (UniProt P00533) | 0 | 0 | 0 | 1 | 0

Target | number of time points [1] | number of time points [2] | number of time points [3] | number of time points [4] | number of time points [5]
LMTK2 (UniProt Q8IWU2) | 0 | 0 | 0 | 0 | 0
PAK4 (UniProt O96013) | 0 | 0 | 0 | 0 | 0
AKT1 (UniProt P31749) | 0 | 0 | 0 | 0 | 0
MKNK1 (UniProt Q9BUB5) | 0 | 0 | 1 | 4 | 0
DDR1 (UniProt Q08345) | 0 | 3 | 1 | 4 | 0
CDK2 (UniProt P24941) | 0 | 0 | 0 | 0 | 0
CDK10 (UniProt Q15131) | 0 | 0 | 0 | 0 | 0
ZAK (UniProt Q9NYL2) | 0 | 0 | 0 | 0 | 0
PDPK1 (UniProt O15530) | 0 | 0 | 0 | 3 | 0
CHEK2 (UniProt O96017) | 0 | 0 | 0 | 0 | 0
CAMK2G (UniProt Q13555) | 0 | 0 | 0 | 0 | 0
ZAP70 (UniProt P43403) | 0 | 0 | 0 | 0 | 0
STK38 (UniProt Q15208) | 0 | 0 | 0 | 0 | 0
MAP2K2 (UniProt P36507) | 0 | 0 | 0 | 0 | 0
AURKA (UniProt O14965) | 0 | 0 | 0 | 0 | 0
CDK3 (UniProt Q00526) | 0 | 0 | 0 | 0 | 0
BRAF_V600E | 0 | 1 | 1 | 3 | 0
FLT3 (UniProt P36888) | 0 | 0 | 0 | 4 | 0
CSNK1A1 (UniProt P48729) | 0 | 0 | 0 | 0 | 0
PTK2B (UniProt Q14289) | 0 | 0 | 0 | 0 | 0
MAP4K2 (UniProt Q12851) | 0 | 0 | 0 | 0 | 0
PDK1 (UniProt Q15118) | 0 | 0 | 0 | 0 | 0

Target | number of time points [1] | number of time points [2] | number of time points [3] | number of time points [4] | number of time points [5]
INSRR (UniProt P14616) | 0 | 1 | 2 | 2 | 0
TEC (UniProt P42680) | 0 | 0 | 0 | 0 | 0
BTK (UniProt Q06187) | 0 | 0 | 0 | 0 | 0
AURKC (UniProt Q9UQB9) | 0 | 0 | 0 | 0 | 0
RPS6KA1 (UniProt Q15418) | 0 | 0 | 0 | 0 | 0
ERBB3 (UniProt P21860) | 0 | 0 | 0 | 2 | 0
BRAF (UniProt P15056) | 0 | 0 | 0 | 0 | 0
CAMK2A (UniProt Q9UQM7) | 0 | 0 | 0 | 0 | 0
EGFR_L861Q (UniProt P00533) | 0 | 0 | 0 | 3 | 0
NTRK2 (UniProt Q16620) | 0 | 0 | 0 | 3 | 0
RIPK2 (UniProt O43353) | 0 | 0 | 0 | 4 | 1
RIPK1 (UniProt Q13546) | 0 | 0 | 0 | 3 | 0
DYRK2 (UniProt Q92630) | 0 | 0 | 0 | 4 | 0
EGFR_T790M (UniProt P00533) | 0 | 0 | 0 | 0 | 0
YES1 (UniProt P07947) | 0 | 0 | 0 | 0 | 0
ALK (UniProt Q9UM73) | 0 | 0 | 0 | 2 | 0
RET (UniProt P07949) | 0 | 0 | 0 | 3 | 0
PRKAA1 (UniProt Q13131) | 0 | 0 | 0 | 1 | 0
FGFR1 (UniProt P11362) | 0 | 0 | 0 | 0 | 0
EPHA2 (UniProt P29317) | 0 | 0 | 0 | 0 | 0
PLK1 (UniProt P53350) | 0 | 0 | 1 | 0 | 0
CDK6 (UniProt Q00534) | 0 | 0 | 0 | 0 | 0

Target | number of time points [1] | number of time points [2] | number of time points [3] | number of time points [4] | number of time points [5]
SRC (UniProt P12931) | 0 | 0 | 0 | 0 | 0
SYK (UniProt P43405) | 0 | 0 | 0 | 0 | 0
ROR2 (UniProt Q01974) | 0 | 0 | 0 | 0 | 0
EGFR_G719S_T790M (UniProt P00533) | 0 | 0 | 0 | 3 | 0
LIMK1 (UniProt P53667) | 0 | 0 | 3 | 3 | 0
BLK (UniProt P51451) |  | 0 | 0 | 0 | 0
ARAF (UniProt P10398) | 0 | 0 | 0 | 0 | 0
MAPKAPK2 (UniProt P49137) | 0 | 0 | 0 | 0 | 0
HER2 (UniProt P04626) | 0 | 0 | 0 | 0 | 0
SPHK1 (UniProt Q9NYA1) | 0 | 0 | 0 | 0 | 0
CSK (UniProt P41240) | 0 | 0 | 0 | 0 | 0
ABL1 (UniProt P00519) | 0 | 2 | 2 | 2 | 0
ULK3 (UniProt Q6PHR2) | 0 | 0 | 0 | 4 | 0
CSF1R (UniProt P07333) | 0 | 0 | 0 | 0 | 0
ERBB4_R711C (clone: ERBB4_mut) (UniProt Q15303) | 0 | 3 | 1 | 4 | 0
FGFR2 (UniProt P21802) | 0 | 0 | 2 | 3 | 0
EGFR (UniProt P00533) | 0 | 0 | 0 | 1 | 0
IRAK3 (UniProt Q9Y616) | 0 | 0 | 0 | 4 | 0
MAP2K1 (UniProt Q02750) | 0 | 0 | 0 | 0 | 0
RET_M918T (clone: RET_mut) (UniProt P07949) | 0 | 0 | 0 | 0 | 0
PTK2 (UniProt Q05397) | 0 | 0 | 0 | 2 | 0
EGFR_L858R (UniProt P00533) | 0 | 0 | 0 | 3 | 0
